In the supplement of paper PMC8728848:
The other results are listed elsewhere or left out.

What was measured:
Assay in all cases: glycan array binding signal (z-score within array); higher = stronger binding
Conditions in all cases: glycan notation: IUPAC condensed, linker removed
[1] = target: Gal(b1-4)GlcNAc(b1-2)[Gal(b1-4)GlcNAc(b1-6)]Man(a1-6)[GlcNAc(b1-4)][Gal(b1-4)GlcNAc(b1-2)Man(a1-3)]Man(b1-4)GlcNAc(b1-4)GlcNAc
Summary of the method: (§1)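 Glycan array data were curated from 3228 arrays in the Consortium for Functional Glycomics database and kept only where the protein sequence was available. Glycan names were converted to IUPAC-condensed notation, and columns mapping to the same glycan were averaged. The binding signal is a within-array Z-score, averaged across arrays of the same protein sequence at different concentrations or buffers and across linkers. Negative Z-scores can be read as non-binding.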

[2] = target: Gal(b1-4)GlcNAc(b1-2)[Gal(b1-4)GlcNAc(b1-6)]Man(a1-6)[GlcNAc(b1-4)][Gal(b1-4)GlcNAc(b1-2)[Gal(b1-4)GlcNAc(b1-4)]Man(a1-3)]Man(b1-4)GlcNAc(b1-4)[Fuc(a1-6)]GlcNAc
Summary of the method: as §1

[3] = target: Gal(b1-4)GlcNAc(b1-3)Gal(b1-3)GalNAc
Summary of the method: as §1

[4] = target: Gal(b1-4)GlcNAc(b1-3)Gal(b1-3)GlcNAc
Summary of the method: as §1

[5] = target: Gal(b1-4)GlcNAc(b1-3)Gal(b1-4)Glc
Summary of the method: as §1

[6] = target: Gal(b1-4)GlcNAc(b1-3)Gal(b1-4)GlcNAc
Summary of the method: as §1

[7] = target: Gal(b1-4)GlcNAc(b1-3)Gal(b1-4)GlcNAc(b1-2)Man(a1-3)[Gal(b1-4)GlcNAc(b1-3)Gal(b1-4)GlcNAc(b1-2)Man(a1-6)]Man(b1-4)GlcNAc(b1-4)GlcNAc
Summary of the method: as §1

[8] = target: Gal(b1-4)GlcNAc(b1-3)Gal(b1-4)GlcNAc(b1-2)Man(a1-3)[Gal(b1-4)GlcNAc(b1-3)Gal(b1-4)GlcNAc(b1-2)Man(a1-6)]Man(b1-4)GlcNAc(b1-4)[Fuc(a1-6)]GlcNAc
Summary of the method: as §1

[9] = target: Gal(b1-4)GlcNAc(b1-3)Gal(b1-4)GlcNAc(b1-2)[Gal(b1-4)GlcNAc(b1-3)Gal(b1-4)GlcNAc(b1-6)]Man(a1-6)[Gal(b1-4)GlcNAc(b1-3)Gal(b1-4)GlcNAc(b1-2)Man(a1-3)]Man(b1-4)GlcNAc(b1-4)GlcNAc
Summary of the method: as §1

[10] = target: Gal(b1-4)GlcNAc(b1-3)Gal(b1-4)GlcNAc(b1-2)[Gal(b1-4)GlcNAc(b1-3)Gal(b1-4)GlcNAc(b1-6)]Man(a1-6)[Gal(b1-4)GlcNAc(b1-3)Gal(b1-4)GlcNAc(b1-2)Man(a1-3)]Man(b1-4)GlcNAc(b1-4)[Fuc(a1-6)]GlcNAc
Summary of the method: as §1

[11] = target: Gal(b1-4)GlcNAc(b1-3)Gal(b1-4)GlcNAc(b1-3)Gal(b1-4)GlcNAc
Summary of the method: as §1

[12] = target: Gal(b1-4)GlcNAc(b1-3)Gal(b1-4)GlcNAc(b1-3)Gal(b1-4)GlcNAc(b1-2)Man(a1-3)[Gal(b1-4)GlcNAc(b1-3)Gal(b1-4)GlcNAc(b1-3)Gal(b1-4)GlcNAc(b1-2)Man(a1-6)]Man(b1-4)GlcNAc(b1-4)GlcNAc
Summary of the method: as §1

[13] = target: Gal(b1-4)GlcNAc(b1-3)Gal(b1-4)GlcNAc(b1-3)Gal(b1-4)GlcNAc(b1-2)Man(a1-3)[Gal(b1-4)GlcNAc(b1-3)Gal(b1-4)GlcNAc(b1-3)Gal(b1-4)GlcNAc(b1-2)Man(a1-6)]Man(b1-4)GlcNAc(b1-4)[Fuc(a1-6)]GlcNAc
Summary of the method: as §1

[14] = target: Gal(b1-4)GlcNAc(b1-3)Gal(b1-4)GlcNAc(b1-3)Gal(b1-4)GlcNAc(b1-2)[Gal(b1-4)GlcNAc(b1-3)Gal(b1-4)GlcNAc(b1-3)Gal(b1-4)GlcNAc(b1-6)]Man(a1-6)[Gal(b1-4)GlcNAc(b1-3)Gal(b1-4)GlcNAc(b1-3)Gal(b1-4)GlcNAc(b1-2)Man(a1-3)]Man(b1-4)GlcNAc(b1-4)[Fuc(a1-6)]GlcNAc
Summary of the method: as §1

[15] = target: Gal(b1-4)GlcNAc(b1-3)Gal(b1-4)GlcNAc(b1-3)Gal(b1-4)GlcNAc(b1-3)Gal(b1-4)GlcNAc(b1-2)Man(a1-3)[Gal(b1-4)GlcNAc(b1-3)Gal(b1-4)GlcNAc(b1-3)Gal(b1-4)GlcNAc(b1-3)Gal(b1-4)GlcNAc(b1-2)Man(a1-6)]Man(b1-4)GlcNAc(b1-4)GlcNAc
Summary of the method: as §1

[16] = target: Gal(b1-4)GlcNAc(b1-3)Gal(b1-4)GlcNAc(b1-3)Gal(b1-4)GlcNAc(b1-3)Gal(b1-4)GlcNAc(b1-2)Man(a1-3)[Gal(b1-4)GlcNAc(b1-3)Gal(b1-4)GlcNAc(b1-3)Gal(b1-4)GlcNAc(b1-3)Gal(b1-4)GlcNAc(b1-2)Man(a1-6)]Man(b1-4)GlcNAc(b1-4)[Fuc(a1-6)]GlcNAc
Summary of the method: as §1

[17] = target: Gal(b1-4)GlcNAc(b1-3)Gal(b1-4)GlcNAc(b1-3)Gal(b1-4)GlcNAc(b1-3)Gal(b1-4)GlcNAc(b1-2)[Gal(b1-4)GlcNAc(b1-3)Gal(b1-4)GlcNAc(b1-3)Gal(b1-4)GlcNAc(b1-3)Gal(b1-4)GlcNAc(b1-6)]Man(a1-6)[Gal(b1-4)GlcNAc(b1-3)Gal(b1-4)GlcNAc(b1-3)Gal(b1-4)GlcNAc(b1-3)Gal(b1-4)GlcNAc(b1-2)Man(a1-3)]Man(b1-4)GlcNAc(b1-4)[Fuc(a1-6)]GlcNAc
Summary of the method: as §1

[18] = target: Gal(b1-4)GlcNAc(b1-3)Gal(b1-4)GlcNAc(b1-3)Gal(b1-4)GlcNAc(b1-3)Gal(b1-4)GlcNAc(b1-3)Gal(b1-4)GlcNAc(b1-2)Man(a1-3)[Gal(b1-4)GlcNAc(b1-3)Gal(b1-4)GlcNAc(b1-3)Gal(b1-4)GlcNAc(b1-3)Gal(b1-4)GlcNAc(b1-3)Gal(b1-4)GlcNAc(b1-2)Man(a1-6)]Man(b1-4)GlcNAc(b1-4)GlcNAc
Summary of the method: as §1

[19] = target: Gal(b1-4)GlcNAc(b1-3)Gal(b1-4)GlcNAc(b1-3)Gal(b1-4)GlcNAc(b1-3)Gal(b1-4)GlcNAc(b1-3)Gal(b1-4)GlcNAc(b1-2)Man(a1-3)[Gal(b1-4)GlcNAc(b1-3)Gal(b1-4)GlcNAc(b1-3)Gal(b1-4)GlcNAc(b1-3)Gal(b1-4)GlcNAc(b1-3)Gal(b1-4)GlcNAc(b1-2)Man(a1-6)]Man(b1-4)GlcNAc(b1-4)[Fuc(a1-6)]GlcNAc
Summary of the method: as §1

[20] = target: Gal(b1-4)GlcNAc(b1-3)Gal(b1-4)GlcNAc(b1-3)Gal(b1-4)GlcNAc(b1-3)Gal(b1-4)GlcNAc(b1-3)Gal(b1-4)GlcNAc(b1-2)[Gal(b1-4)GlcNAc(b1-3)Gal(b1-4)GlcNAc(b1-3)Gal(b1-4)GlcNAc(b1-3)Gal(b1-4)GlcNAc(b1-3)Gal(b1-4)GlcNAc(b1-6)]Man(a1-6)[Gal(b1-4)GlcNAc(b1-3)Gal(b1-4)GlcNAc(b1-3)Gal(b1-4)GlcNAc(b1-3)Gal(b1-4)GlcNAc(b1-3)Gal(b1-4)GlcNAc(b1-2)Man(a1-3)]Man(b1-4)GlcNAc(b1-4)[Fuc(a1-6)]GlcNAc
Summary of the method: as §1

[21] = target: Gal(b1-4)GlcNAc(b1-3)Gal(b1-4)GlcNAc(b1-3)Gal(b1-4)GlcNAc(b1-3)Gal(b1-4)GlcNAc(b1-3)Gal(b1-4)GlcNAc(b1-3)Gal(b1-4)GlcNAc(b1-2)Man(a1-3)[Gal(b1-4)GlcNAc(b1-3)Gal(b1-4)GlcNAc(b1-3)Gal(b1-4)GlcNAc(b1-3)Gal(b1-4)GlcNAc(b1-3)Gal(b1-4)GlcNAc(b1-3)Gal(b1-4)GlcNAc(b1-2)Man(a1-6)]Man(b1-4)GlcNAc(b1-4)GlcNAc
Summary of the method: as §1

[22] = target: Gal(b1-4)GlcNAc(b1-3)Gal(b1-4)GlcNAc(b1-3)GalNAc
Summary of the method: as §1

[23] = target: Gal(b1-4)GlcNAc(b1-3)Gal(b1-4)GlcNAc(b1-3)[Gal(b1-4)GlcNAc(b1-3)Gal(b1-4)GlcNAc(b1-6)]GalNAc
Summary of the method: as §1

B1: MXA PilAct-eGFP (Myxococcus xanthus), Q59589 (protein)
chain: MRVSRFNPRNRGFTLIELMIVVAIIGILAAIAIPNFIKFQARSKQSEAKTNLKALYTAQKSFFSEKDRYSDFANEIGFAPERGNRYGYRVSAAAGDCEVRNAADLPVPAAGVPCISNDSFRFGANSAIDDPTPVVARFVPQGAAGWNTTLGVQPTIADCPNCNFFAGARGNADNEATFDDWVIAGFEGSGQVGPCSEAGNVASGTPYNTRNDVACDGAAQ
glycan array binding signal (z-score) [1]: 0.776 | glycan array binding signal (z-score) [2]: 0.16 | glycan array binding signal (z-score) [3]: -1.05 | glycan array binding signal (z-score) [4]: -0.29 | glycan array binding signal (z-score) [5]: -0.853 | glycan array binding signal (z-score) [6]: 1.25 | glycan array binding signal (z-score) [7]: 0.107 | glycan array binding signal (z-score) [8]: 2.31 | glycan array binding signal (z-score) [9]: -0.993 | glycan array binding signal (z-score) [10]: 0.219 | glycan array binding signal (z-score) [11]: 1.75 | glycan array binding signal (z-score) [12]: 0.59 | glycan array binding signal (z-score) [13]: 2.05 | glycan array binding signal (z-score) [14]: 1.63 | glycan array binding signal (z-score) [15]: 2.31 | glycan array binding signal (z-score) [16]: 0.64 | glycan array binding signal (z-score) [17]: 3.46 | glycan array binding signal (z-score) [18]: 2.47 | glycan array binding signal (z-score) [19]: 0.551 | glycan array binding signal (z-score) [20]: 2.3 | glycan array binding signal (z-score) [21]: 0.42 | glycan array binding signal (z-score) [22]: -1.23 | glycan array binding signal (z-score) [23]: -0.556
